# In article PMC12412623:
# Sequences of proteins named here, by UniProt entry; tags and fusion partners are left off.
# UniProt Q96I24: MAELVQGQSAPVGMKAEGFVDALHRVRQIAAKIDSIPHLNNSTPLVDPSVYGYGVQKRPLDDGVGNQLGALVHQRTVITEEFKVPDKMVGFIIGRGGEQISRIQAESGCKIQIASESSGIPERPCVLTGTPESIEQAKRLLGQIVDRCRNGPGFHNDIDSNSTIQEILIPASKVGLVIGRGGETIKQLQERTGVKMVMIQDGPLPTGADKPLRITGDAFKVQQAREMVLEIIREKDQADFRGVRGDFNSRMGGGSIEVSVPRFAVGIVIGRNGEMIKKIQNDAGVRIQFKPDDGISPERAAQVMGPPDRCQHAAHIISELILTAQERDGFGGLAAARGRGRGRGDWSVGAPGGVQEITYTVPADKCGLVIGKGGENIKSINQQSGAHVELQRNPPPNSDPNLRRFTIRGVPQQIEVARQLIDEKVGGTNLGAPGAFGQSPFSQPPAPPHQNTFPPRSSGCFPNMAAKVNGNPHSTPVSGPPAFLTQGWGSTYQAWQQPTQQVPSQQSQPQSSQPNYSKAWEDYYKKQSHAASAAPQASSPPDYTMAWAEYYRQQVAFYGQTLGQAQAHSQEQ
# UniProt Q9Y6M1: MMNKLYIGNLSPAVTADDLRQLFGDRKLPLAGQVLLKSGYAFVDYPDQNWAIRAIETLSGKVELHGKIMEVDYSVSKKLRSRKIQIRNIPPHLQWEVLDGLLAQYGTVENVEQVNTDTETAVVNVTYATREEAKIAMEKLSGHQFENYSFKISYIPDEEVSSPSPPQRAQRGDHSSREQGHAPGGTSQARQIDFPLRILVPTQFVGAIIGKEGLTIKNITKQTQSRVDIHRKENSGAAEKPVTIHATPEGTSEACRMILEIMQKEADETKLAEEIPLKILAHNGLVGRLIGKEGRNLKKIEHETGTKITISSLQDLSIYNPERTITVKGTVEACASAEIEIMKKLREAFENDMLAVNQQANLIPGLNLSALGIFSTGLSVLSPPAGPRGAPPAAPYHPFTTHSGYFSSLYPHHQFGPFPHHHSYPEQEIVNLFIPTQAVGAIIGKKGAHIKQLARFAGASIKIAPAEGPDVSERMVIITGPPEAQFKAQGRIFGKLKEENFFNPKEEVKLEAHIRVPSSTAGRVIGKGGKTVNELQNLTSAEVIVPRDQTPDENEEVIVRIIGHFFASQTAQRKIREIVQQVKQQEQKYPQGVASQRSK
# No constants are given. Whether binding was seen depends on the method and setting. In cells and extracts the contact can be indirect.
# Biological target: far upstream element-binding protein 3 (UniProt Q96I24)
# Assay: co-IP; H1299 and PC9 cells transfected with IGF2BP2 or FUBP3 vectors; RIPA lysis and ultrasonication; lysate incubated overnight at 4 °C with antibody-loaded magnetic beads (IgG as control); washed thrice with binding buffer; western blot; CoIP using FUBP3
substance,measurement,value
Insulin-like growth factor 2 mRNA-binding protein 2 (from UniProt Q9Y6M1 1-599),binding,no binding
